Laboratory results reported in PubChem BioAssay AID493014 (National Center for Advancing Translational Sciences (NCATS), 2011).
The other results are listed elsewhere or left out. These are further read-outs of the screen, such as a control signal, another cell line or another target. No call is given for them. The list favours compounds with an active or inconclusive main result. Potencies come from curve fits of mixed quality, noted in brackets.

Test: qHTS Assay to Find Inhibitors of Chronic Active B-Cell Receptor Signaling
Details: ABC-DLBCL IkBa-CBG/CBR reporter, luminescence ratio (green luciferase fused to IkBa over red control in TMD8 lymphoma cells), 4 h
In short: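 Concentration-response series (up to 46 uM) were applied to TMD8 dual-reporter cells for 4 h at 37C with doxycycline. Green/red ratio, after filter-overlap correction, defined %Activity; red signal alone was normalised to basal cells and zero luminescence.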

[1] = measured here: CBR red luminescence, cell number
[2] = measured here: IkBa-CBG green luminescence

SMILES | AC50 [1] | AC50 [2]
CCc1ccc(C(=O)CN2C(=O)NC(C)(c3ccc(C)cc3)C2=O)cc1 (configuration not stated) | 15.8 µM [falling, partial curve, poor fit] | –
O=C(Nc1cccc(S(=O)(=O)NC2=NCCC2)c1)c1cnc(Cl)c(Cl)c1 | 32.6 µM [falling, single point] | –
O=C(Nc1ccc(N2CCCC2)c(Cl)c1)c1cccs1 | 35.5 µM [falling, single point] | –
C=CC[C@@H](CC(=O)N(CCO)Cc1ccccc1)C(=O)NCCOC(=O)[C@@H](CC=C)Cc1ccc(F)cc1 | 29.1 µM [falling, single point] | –
O=C(CC1(O)C(=O)c2ccccc2C1=O)c1ccccc1 | 18.4 µM [rising, partial curve, poor fit] | –
CCOC(=O)/C=C/S(=O)(=O)c1ccc(NC(C)=O)cc1 | 3.98 µM [falling, full curve] | –
CCCCc1ccc(-c2ccc(Br)cc2)nc1 | 0.731 µM [rising, full curve] | –
Cc1ccc(C(=O)NCC2CCCO2)cc1S(=O)(=O)N1CCCCC1 (configuration not stated) | 35.5 µM [rising, single point] | –
CC(=O)Oc1cc2c3c(c1)/C(=C1/SC(=S)NC1=O)C(=O)N3C(C)(C)C=C2C | 0.562 µM [rising, full curve, poor fit] | –
CCn1c(Cc2ccc(OC)cc2)nnc1SCC(=O)Nc1nc2ccccc2s1 | 5.8 µM [falling, single point] | –
CCC(CO)n1c(SCc2cc(=O)oc3cc(C)ccc23)nc2ccccc2c1=O (configuration not stated) | 2.59 µM [rising, partial curve, poor fit] | –
COc1ccc(Cl)cc1NS(=O)(=O)c1ccc2c(c1)NC(=O)CCS2 | 11.2 µM [falling, partial curve, poor fit] | –
Cc1ncc(CO)c(/C=N/NC(=O)c2ccc(O)cc2)c1O | 0.82 µM [falling, full curve] | –
Cc1cccc(NC(=S)N(Cc2cccs2)Cc2cc3cc(C)ccc3[nH]c2=O)c1 | 1.64 µM [rising, full curve] | –
CCc1oc2ccccc2c1C(=O)CCN1CCCCC1 | 5.62 µM [falling, partial curve, poor fit] | –
COc1ccccc1NC(=O)Nc1ccc(C(N)=O)cc1 | 2.51 µM [falling, partial curve, poor fit] | –
O=C(N/N=C/c1ccc([N+](=O)[O-])s1)c1ccccc1Br | 35.5 µM [falling, single point] | –
CC1Cc2nc(SCC(=O)Nc3ccc4c(c3)OCCO4)n(C)c(=O)c2S1 (configuration not stated) | 5.8 µM [falling, full curve, poor fit] | –
C=CCn1c(=S)[nH]c2cc(C(=O)Nc3ccc(F)cc3)ccc2c1=O | 0.794 µM [falling, full curve] | –
CCN1CCN(Cc2ccc(NC(=O)c3ccc(C)c(NC(=O)N4CCNC4=O)c3)cc2C(F)(F)F)CC1 | 17.8 µM [falling, partial curve, poor fit] | –
CC(=O)C1C(c2ccc(Cl)cc2)c2c(noc2C)CC1(C)O (configuration not stated) | 35.5 µM [rising, single point] | –

SMILES | AC50 [1] | AC50 [2]
CC(C)(C)c1ccc(NC(=O)COc2ccc(-n3ccnc3)cc2)cc1 | 0.731 µM [falling, partial curve, poor fit] | –
Cc1ccc(-c2noc(C3CCCN(C(=O)C4CCCCC4)C3)n2)o1 (configuration not stated) | 4.61 µM [rising, full curve] | –
COc1ccc(-c2nc(-c3cccc(C)c3)nc(Cl)c2C#N)cc1 | 0.316 µM [rising, full curve, poor fit] | –
CC(Oc1ccc(Cl)cc1Cl)C(=O)NC1CCSC1=O (configuration not stated) | 16.4 µM [rising, single point] | –
CCc1ccccc1NC(=O)CCCSc1nc2ccccc2s1 | 0.82 µM [rising, full curve, poor fit] | 3.26 µM [rising, full curve]
O=C(N/N=C(\Cc1ncc[nH]1)c1ccccc1)c1ccccc1 | 3.16 µM [falling, partial curve, poor fit] | –
CC(=O)c1c(C)[nH]c(C(=O)OCC(=O)Nc2ccc([N+](=O)[O-])cc2Cl)c1C | 2.59 µM [rising, full curve] | –
Cc1ccc2c(c1)sc1nc(-c3cc4cc(Cl)ccc4oc3=O)cn12 | 8.91 µM [falling, partial curve, poor fit] | –
O=C(N/N=C/c1ccc(OC(=O)c2ccccc2)cc1)c1cccc(O)c1 | 17.8 µM [falling, partial curve, poor fit] | –
CCOc1ccc(Oc2nc(C)cc(OC)n2)nn1 | 0.103 µM [rising, full curve, poor fit] | –
O=C(O)CN1C(=O)/C(=C\c2cccc(OCc3ccc(F)cc3)c2)SC1=S | 31.6 µM [rising, single point] | –
Cc1ccc(N2CC(NC(=O)Cc3ccc(F)cc3)CC2=O)cc1 (configuration not stated) | 7.94 µM [rising, partial curve, poor fit] | –
CCOc1cc(OCC)cc(C(=O)Nc2cccnc2)c1 | 14.1 µM [falling, partial curve, poor fit] | –
O=C(CSC(=S)N1CCOCC1)Nc1nccs1 | 11.2 µM [falling, partial curve, poor fit] | –
Cn1c(CCNC(=O)c2ccco2)nc2cc(NC(=O)C3CCCCC3)ccc21 | 18.4 µM [falling, single point] | –
CC(O)[C@H]1CNC(=O)C(=O)N1CCc1cccc(F)c1 (some centres not stated) | 35.5 µM [falling, single point] | –
Cc1cc(C)n(-c2nc(SCCN(C)C)c3c4c(sc3n2)COC(C)(C)C4)n1 | 6.31 µM [falling, single point] | –
CCOc1ccc(-c2c(C(=O)N/N=C/c3ccc(OC)cc3)nnn2-c2nonc2N)cc1 | 4.11 µM [rising, full curve, poor fit] | –
CC(=O)Nc1cccc(C(=O)/C=C/c2ccco2)c1 | 8.91 µM [falling, partial curve, poor fit] | –
CCOc1cccc(C(=O)Nc2cccc(NC(=O)c3ccco3)c2)c1 | 8.91 µM [falling, partial curve, poor fit] | –
O=C(CN1C(=O)NC2(CCCC2)C1=O)Nc1ccc(Cl)c(C(F)(F)F)c1 | 17.8 µM [falling, partial curve, poor fit] | –

SMILES | AC50 [1] | AC50 [2]
N#Cc1c2c(c(-n3cnc4ccccc43)n3c1nc1ccccc13)CCC2 | 0.1 µM [falling, full curve, poor fit] | –
Cc1ccc(NC(=O)CSC2=C(C#N)C(c3ccco3)C3=C(CC(C)(C)CC3=O)N2)cc1 (configuration not stated) | 32.6 µM [falling, single point] | –
CCOc1ccc(OCCn2c(=S)[nH]c3ccccc32)cc1 | 3.16 µM [rising, full curve, poor fit] | –
O=C(O)c1cccc(NC(=S)N/N=C/c2ccccc2OCc2cccc(Br)c2)c1 | 35.5 µM [falling, single point] | –
COc1cc(/C=N\NC(=O)c2ccc(C)nc2)ccc1OC(=O)c1cccc(F)c1 | 6.31 µM [falling, single point] | –
CCOc1ccc(NC(=O)CN(C)C(=O)CSc2ccccc2)cc1OCC | 1.84 µM [rising, partial curve] | –
Cc1c(Cl)cccc1NC(=O)[C@@H](NC(=O)c1ccccc1Cl)C(C)C | 7.31 µM [rising, partial curve, poor fit] | –
COc1ccc2cc(CN(CC3CCCO3)C(=O)Nc3ccccc3OC)c(=O)[nH]c2c1 (configuration not stated) | 35.5 µM [falling, partial curve, poor fit] | –
CCOC(=O)c1cc(C)n(Cc2ccc(OCC)c(OC)c2)c1C | 0.259 µM [falling, full curve, poor fit] | –
COc1cc(SC)ccc1C(=O)OCC(=O)NCC(C)C | 8.91 µM [rising, partial curve, poor fit] | –
O=C1c2ccccc2C(=O)C1(CO)c1ccc(OC(F)F)cc1 | 2.51 µM [falling, full curve, poor fit] | –
Cc1cccc(NC(=O)Nc2cccc(C#N)c2)n1 | 23.1 µM [falling, single point] | 16.4 µM [rising, partial curve, poor fit]
CCOC(=O)c1[nH]c(C)c(C(=O)c2ccc(C)cc2)c1C | 23.1 µM [rising, partial curve] | 20.6 µM [falling, partial curve]
COc1cccc(NC(=O)c2ccc3nsnc3c2)c1 | 2.82 µM [falling, partial curve, poor fit] | –
Cc1ccc(F)cc1N=Cc1c(O)c2ccccc2oc1=O | 3.98 µM [falling, partial curve] | –
O=C(CNC(=O)[C@@H]1Cc2ccccc2CN1)Nc1ccc2c(c1)OCCO2 | 2.82 µM [rising, single point] | –
COCCn1c(N)c(C(=O)NCC2CCCO2)c2nc3ccccc3nc21 (configuration not stated) | 7.94 µM [falling, partial curve] | –
O=C(NNc1ncnc2c1cnn2-c1ccccc1)c1ccco1 | 12.6 µM [falling, partial curve] | 6.31 µM [rising, full curve, poor fit]
Cc1nc(C)c(C(=O)NNC(=O)c2ccc(Br)cc2)s1 | 29.1 µM [falling, single point] | –
COc1ccccc1NC(=O)CN1CCOCC1 | 5.62 µM [rising, partial curve, poor fit] | –
COc1ccc(CNC(=O)C2CCN(S(=O)(=O)c3ccc4c(c3)NC(=O)CO4)CC2)cc1 | 22.4 µM [falling, single point] | –

Nothing new here: an excerpt of the list.
SMILES | AC50 [1] | AC50 [2]
Cc1cc(C)n(-c2nc(SCCN(C)C)c3c4c(sc3n2)COC(C)(C)C4)n1 | 6.31 µM [falling, single point] | –
CCOc1ccc(-c2c(C(=O)N/N=C/c3ccc(OC)cc3)nnn2-c2nonc2N)cc1 | 4.11 µM [rising, full curve, poor fit] | –
CC(=O)Nc1cccc(C(=O)/C=C/c2ccco2)c1 | 8.91 µM [falling, partial curve, poor fit] | –
CCOc1cccc(C(=O)Nc2cccc(NC(=O)c3ccco3)c2)c1 | 8.91 µM [falling, partial curve, poor fit] | –
